Measured values taken from PubChem BioAssay AID594 (National Center for Advancing Translational Sciences (NCATS), 2007).
“And” between values parts separate entries of the source, which are not always exact repeats. Equal values may be shown once. About 30 (0.05%) of roughly 59,000 compounds were called active. Inconclusive results, whose numbers are uncertain, are shown with a selection of clear calls. No stated cut-off is given here; in the data, active means max dye-equivalent concentration above about 11 nM; inconclusive means between about 1.1 nM and that limit; inactive means weaker than that.

Test: qHTS Assay for Spectroscopic Profiling in Rhodamine Spectral Region
Conditions: Rhodamine-region fluorescence, 547/598 nm, Tris buffer; stronger effect = higher value
From the text: NIH Molecular Libraries Screening Centers Network [MLSCN] NIH Chemical Genomics Center [NCGC] […] Occasionally, the artifactual effect may originate from the compound#s own spectral or other biophysical properties which generally tend to track its assay concentration. Pre-screening/profiling the library with respect to the compounds# spectral properties should help one exclude false positives early on. While the most informative fluorescent profiling data set is obtained by performing a full excitation and emission scan of each well by using a monochromator-based plate reader, such an approach is practical only on a very limited scale as scanning each well requires long time. An alternative approach, applied here, is to perform plate reader scans using selected excitation and emission wavelength pairs to generate a multidimensional relational database that correlates compound concentration and the respective relative fluorescence intensity at a given wavelength set. A standard curve of rhodamine present on each plate as six-point concentration series, was used to compute a normalized fluorescence response, termed dye-equivalent concentration, for each compound at each concentration.
NCGC Assay Protocol Summary: Buffer: 100 mM Tris buffer, pH 8.0 Dye standard plate: The wells in columns 1 through 4 of a Kalypsys polypropylene 1536-well compound plate were filled with standard solutions of fluorophore corresponding to the spectral region of interest. Solutions of rhodamine were placed in the following wells: E1, F1: 3 mM, E2, F2: 300 uM, E3, F3: 30 uM, E4, F4: zero (DMSO), G1, H1: 3 uM, G2, H2: […], G3, H3: 300 nM, G4, H4: zero (DMSO). Assay Steps: Six uL of buffer were dispensed to 1536-well Greiner black plates. Compounds and dye standards (23 nL) were transferred via Kalypsys PinTool. The plates were incubated for 15 min at room temperature, and then read on ViewLux (Perkin-Elmer) High-throughput CCD imager using 547 nm and 598 nm excitation and emission filter set. Keywords: NIH Roadmap, MLSCN, MLI, MLSMR, qHTS, NCGC, Rhodamine , Fluorescent Profiling.

Structure (SMILES)	max dye-equivalent concentration
CNC(=O)[C@@H]1O[C@@H](n2cnc3c(NCc4cccc(I)c4)ncnc32)[C@H](O)[C@@H]1O	inactive
COc1cccc2c1C(=O)c1c(O)c3c(c(O)c1C2=O)C[C@@](O)(C(=O)CO)C[C@@H]3O[C@H]1C[C@H](N)[C@H](O)[C@H](C)O1	active: 8.7e-08 M
CCN(CC)c1ccc2oc(=O)c(C)nc2c1	inconclusive: 1.5e-09 M
C[n+]1cc2c3c(ccc2c2ccc4cc5c(cc4c21)OCO5)OCO3	inconclusive: 1.6e-09 M and inconclusive: 1.1e-09 M
COC(=O)c1ccc2c(c1)SC1=C(CCCC1=O)N2	active: 2e-08 M
CC1=c2c(oc3cc(O)c(Nc4c(C)cc(O)cc4O)c(C)c23)=CC(=O)C1=Nc1c(C)cc(O)cc1O	active: 1.2e-07 M
CCOC(=O)N1CCN(c2cc(NCCC(=O)O)c3c4c(onc24)-c2ccccc2C3=O)CC1	inconclusive: 1.2e-09 M
COCCNc1ncnc2ccc(-c3ccc(C(=O)N(C)C)cc3)cc12	inactive
COc1[nH]c(/N=C/c2ccccc2)c(C#N)c1C#N	inconclusive: 7e-09 M
COCCn1c(=O)c(C)nc2cnc(Nc3ccccc3)nc21	inactive
CCCn1c(=C(C#N)C#N)s/c(=C2\C=Cc3ccccc3N2CC)c1=O	inconclusive: 8.2e-09 M
COc1ncnc2c1N=C1CC(C)(C)CC(N)=C1S2	inconclusive: 5.8e-09 M
COc1ccc2cc1Oc1ccc(cc1)C[C@H]1c3cc(c(OC)cc3CCN1C)Oc1c(OC)c(OC)cc3c1[C@@H](C2)N(C)CC3	inconclusive: 2.7e-09 M
CCCn1c(O)c(CN2CCCC(C)C2)c(C)c(C#N)c1=O (configuration not stated)	inconclusive: 1.1e-09 M
O=S(=O)(Cc1ccccc1)N1CCc2ccccc21	active: 2.1e-08 M
O=S(=O)(c1cccc(-c2nnc(SCc3nc4ccccc4s3)o2)c1)N1CCOCC1	inconclusive: 2.3e-09 M
COc1cccc2c1C(=O)c1c(O)c3c(c(O)c1C2=O)C[C@@](O)(C(C)=O)C[C@@H]3O[C@H]1C[C@H](N)[C@H](O)[C@H](C)O1	active: 6.4e-08 M
Cc1cc2cc(CNC(=O)c3cccs3)ccc2n1C	inconclusive: 1.7e-09 M
CCNc1ncc2nc(-c3ccc(Cl)cc3)c(=O)n(C3CC3)c2n1	inactive
CCN1C(=O)/C(=C2\C=Cc3ccccc3N2CC)OC1=S	active: 2.2e-08 M
CN1CCc2c(sc3c2C(=O)NC(c2ccccn2)N3)C1 (configuration not stated)	inconclusive: 2.6e-09 M
CN1/C(=C\C(=O)COC(=O)Cn2nnc(-c3ccccc3)n2)C(C)(C)c2ccccc21	inconclusive: 6.3e-09 M
Cc1cc(/C=C\c2ccc3cc(N(C)C)ccc3[n+]2C)c(C)n1-c1ccccc1	inconclusive: 1.1e-09 M
CCN1CCC[C@@H]1CNC(=O)c1c(O)c(Cl)cc(Cl)c1OC	inactive
CN(c1ccccc1)c1ccc(/C=c2\s/c(=C(/C#N)C(=O)C(C)(C)C)n(Cc3ccco3)c2=O)cc1	active: 3.6e-08 M
O=C(Nc1ccc2c(c1)OCO2)C1CCCN(c2nc3ccccc3s2)C1 (configuration not stated)	active: 1.2e-08 M

Structure (SMILES)	max dye-equivalent concentration
O=C(O)CCCNc1cc(N2CCC3(CC2)OCCO3)c2noc3c2c1C(=O)c1ccccc1-3	inconclusive: 2.6e-09 M
Cc1ccccc1CS(=O)(=O)Cc1ccc(C(=O)NCc2ccccn2)o1	inconclusive: 1.8e-09 M
CCOc1cccc2cc(C(=O)N3CCc4ccccc43)c(=O)oc12	active: 1.1e-08 M
CN(C)C=Nc1c(Br)cc(Br)c2nonc12	inconclusive: 2.2e-09 M
O=S(=O)(c1cnc[nH]1)N1CCc2ccccc21	inconclusive: 4.8e-09 M
COc1cccc2c1C(=O)c1c(O)c3c(c(O)c1C2=O)C[C@](O)(C(C)=O)C[C@H]3O[C@@H]1C[C@H](N)[C@H](O)[C@H](C)O1	active: 6e-08 M
Cn1cc(C2=C(c3ccc(Cl)cc3Cl)C(=O)NC2=O)c2ccccc21	inconclusive: 8.1e-09 M
CCOC(=O)c1sc(N)c(C#N)c1CSc1nc2ccc(OCC)cc2[nH]1	inactive
O=C1c2ccccc2-c2onc3ccc(NCc4ccco4)c1c23	active: 2e-08 M
CCn1c(=O)c(=O)[nH]c2cc(C(=O)NC3CCCc4ccccc43)ccc21 (configuration not stated)	inconclusive: 2.6e-09 M
CC1CCN(CC[C@@H]2CCCN2S(=O)(=O)c2cccc(O)c2)CC1	inactive
Cc1cc(C)c(/C=C2/C(=O)Nc3ccccc32)[nH]1	inconclusive: 1.6e-09 M
CN1Cc2sc(N)c(C#N)c2CC1(C)C	inconclusive: 1.1e-09 M
O=[n+]1c2c(n([O-])c3cc(F)c(N4CCCC4)cc31)CCC2	inconclusive: 9.9e-09 M
O=C(O)c1ccccc1C1=Nc2ccc(O)cc2Oc2cc(O)ccc21	inconclusive: 4.9e-09 M
c1cncc(-c2nn3c(Cn4cnc5ccccc54)nnc3s2)c1	inconclusive: 1.2e-09 M
COc1ccc(-c2nc3cnc(N4CCNCC4)nc3n(CCC#N)c2=O)cc1	inactive
CC(=O)[C@@]1(O)Cc2c(O)c3c(c(O)c2[C@H](O[C@H]2C[C@H](N)[C@H](O)[C@H](C)O2)C1)C(=O)c1ccccc1C3=O	active: 4.2e-08 M
Cc1cc2nc3c(=O)[nH]c(=O)nc-3n(CC(O)C(O)C(O)CO)c2cc1C (configuration not stated)	inconclusive: 2.7e-09 M
CC(C)c1[nH]nc2c1C(c1cccc(OC(=O)N3CCOCC3)c1)C(C#N)=C(N)O2 (configuration not stated)	inconclusive: 1.7e-09 M
Cc1cc2cc(CN3C(=O)c4ccccc4C3=O)ccc2n1C	inconclusive: 1.9e-09 M
Cc1nc2cnc(N3CCN(C)CC3)nc2n(CCc2ccccc2)c1=O	inactive
CCn1c(=O)c(=O)[nH]c2cc(C(=O)N3CCN(c4ccccc4F)CC3)ccc21	inconclusive: 1.3e-09 M
COc1cccc(Nc2ncc3nc(-c4ccc(F)cc4)c(=O)n(CCC#N)c3n2)c1	inactive
COc1ccccc1-c1cncnc1Nc1ccc(F)cc1	inactive

As entered above:
Entry for O=S(=O)(c1cnc[nH]1)N1CCc2ccccc21 under max dye-equivalent concentration: inconclusive: 4.8e-09 M
Entry for CN(C)C=Nc1c(Br)cc(Br)c2nonc12 under max dye-equivalent concentration: inconclusive: 2.2e-09 M
Entry for Cc1cc2nc3c(=O)[nH]c(=O)nc-3n(CC(O)C(O)C(O)CO)c2cc1C (configuration not stated) under max dye-equivalent concentration: inconclusive: 2.7e-09 M
Entry for COc1ccccc1-c1cncnc1Nc1ccc(F)cc1 under max dye-equivalent concentration: inactive
